Results taken from PubChem BioAssay AID743255 (National Center for Advancing Translational Sciences (NCATS), 2014).
The campaign covered roughly 390,000 compounds. About 910 (0.23%) were called active. Inconclusive results, whose numbers are uncertain, are shown with a selection of clear calls. Calls follow the shape of the dose curve; as a rule, active = well fitted inhibition curve with a large enough effect; inconclusive = small, poorly fitted or top-dose-only effect; inactive = no such curve, though single readings can be large or run the other way. A potency beside an inconclusive call is a rough fit, not a confirmed value.

Sequences of proteins named here, by UniProt entry; tags and fusion partners are left off. A change or cut given only in a name is not applied to a line headed by its entry.
UniProt O94782: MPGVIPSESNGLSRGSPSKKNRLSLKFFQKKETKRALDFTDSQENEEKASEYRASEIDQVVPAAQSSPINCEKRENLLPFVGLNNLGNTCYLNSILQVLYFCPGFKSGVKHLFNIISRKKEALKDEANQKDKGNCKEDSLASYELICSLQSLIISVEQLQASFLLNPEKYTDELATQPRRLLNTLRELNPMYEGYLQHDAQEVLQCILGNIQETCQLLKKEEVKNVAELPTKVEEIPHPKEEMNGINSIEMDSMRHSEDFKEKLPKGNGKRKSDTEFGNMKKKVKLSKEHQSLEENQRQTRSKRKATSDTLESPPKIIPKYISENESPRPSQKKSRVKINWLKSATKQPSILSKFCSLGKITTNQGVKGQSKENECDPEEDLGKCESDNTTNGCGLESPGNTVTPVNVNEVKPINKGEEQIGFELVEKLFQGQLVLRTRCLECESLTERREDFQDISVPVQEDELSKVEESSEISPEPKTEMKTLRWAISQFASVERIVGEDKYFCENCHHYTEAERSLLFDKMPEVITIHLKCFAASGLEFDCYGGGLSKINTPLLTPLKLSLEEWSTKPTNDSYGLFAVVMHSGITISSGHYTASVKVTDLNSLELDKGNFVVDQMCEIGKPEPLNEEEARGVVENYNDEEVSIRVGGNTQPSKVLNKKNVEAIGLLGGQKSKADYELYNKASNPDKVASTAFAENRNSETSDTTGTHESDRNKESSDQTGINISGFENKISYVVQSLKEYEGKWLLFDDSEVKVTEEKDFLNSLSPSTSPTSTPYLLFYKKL

These molecules were tested against Ubiquitin carboxyl-terminal hydrolase 1 (Homo sapiens) (UniProt O94782) (assay: Inhibitors of USP1/UAF1: Primary Screen). Settings: recombinant USP1/UAF1, Ub-Rhodamine cleavage fluorescence; activity change, negative = inhibition: at 57.1 µM (top of the series).
How it was run: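 USP1/UAF1 complex (1 nM) preincubated 15 min at room temperature with compound, then Ub-Rho substrate (150 nM final) added. Kinetic fluorescence at 480/540 nm over 6 reads at 60 s intervals; 50 mM HEPES pH 7.8, 0.5 mM EDTA, 0.1 mg/ml BSA, 1 mM TCEP, 0.01% Tween-20.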
% is scaled to controls: 0 for no effect and ±100 for the full control effect; potency is read from the fitted curve at half-maximal effect.
Also: nearly all actives have a fitted effect of over 60% in size.

Potency, inactive:
COc1ccc(C(=O)N(Cc2sccc2C)C2CCS(=O)(=O)C2)cc1 (centres undefined)

Potency, active:
Cc1ccc(O)c(N=Cc2cc(Cc3ccccc3)cc([N+](=O)[O-])c2O)c1 25.1 µM

Potency, inconclusive:
O=C(N/N=C/c1c[nH]c2ccccc12)c1[nH]c2ccc(Br)cc2c1-c1ccccc1 8.91 µM [inhibitor, full curve, poor fit]
COc1cc(C(C(=O)NC(C)(C)C)N(C(=O)CNC(=O)c2cccs2)c2ccc(C(C)C)cc2)cc(OC)c1OC (centres undefined) 0.562 µM [inhibitor, full curve, poor fit]
CCc1cc(C(=O)N2CCN(C(=O)c3ccccc3)CC2)sc1C 3.55 µM [inhibitor, full curve, poor fit]
C=C(C)COc1cc2oc(=O)c(CC(=O)N3C[C@H]4C[C@@H](C3)c3cccc(=O)n3C4)c(C)c2cc1Cl 7.94 µM [inhibitor, partial curve]
CCOc1ccc(NC(=O)Cn2c(=O)c(CNc3ccccc3)cc3cc4c(cc32)OCCO4)cc1 17.8 µM [inhibitor, partial curve]
COc1cc(NC(=O)c2ccc(F)cc2)c(OC)cc1NC(=O)CN1CCOCC1 112 µM [inhibitor, partial curve, poor fit]
Cc1nn(C)c(C)c1S(=O)(=O)N1CCCC(C(=O)NC2CCCCCC2)C1 (centres undefined) 35.5 µM [inhibitor, partial curve]
CCOc1ccc(OCC)c(NC(=O)c2csc3c2CCCC3)c1 1.58 µM [inhibitor, partial curve, poor fit]
O=C(CCS(=O)(=O)c1ccccc1)Nc1nncs1 1.12 µM [inhibitor, full curve, poor fit]
CC(=O)N1c2c(cc(Br)cc2S(=O)(=O)NCc2ccccc2Cl)CC1C (centres undefined) 0.447 µM [inhibitor, full curve, poor fit]
O=C(NCCc1ccccc1)C(=O)NCC1OCCN1S(=O)(=O)c1ccc([N+](=O)[O-])cc1 (centres undefined) 50.1 µM [inhibitor, partial curve, poor fit]
COc1ccc(Cl)cc1NC(=O)CSc1nc(=O)[nH]c2c1CCCC2 28.2 µM [inhibitor, single point]
CCCC(=O)Nc1cc(C)c(NC(=O)c2cccs2)cn1 4.47 µM [inhibitor, partial curve]
O=C(NNc1ccccc1)Nc1cc(Cl)ccc1Cl 1.26 µM [inhibitor, full curve]
COc1ccc(OCC2c3cc(OC)c(OC)cc3CCN2C(=O)COc2ccc(Cl)cc2Cl)cc1 (centres undefined) 17.8 µM [inhibitor, partial curve]
CCN(CC)CCCNC(=O)CSc1nc2nc(C)c(Cc3c(F)cccc3Cl)c(C)n2n1 2.51 µM [inhibitor, partial curve]
Cc1ccc(N(Cc2cc3ccccc3[nH]c2=O)C(=O)c2cccc(Cl)c2)cc1 5.01 µM [inhibitor, partial curve]
Cc1cc(C(=O)N2CCCC(CO)(Cc3ccc(F)cc3F)C2)nn1C (centres undefined) 0.282 µM [inhibitor, full curve, poor fit]
C=CCOc1ccccc1CNc1ccc2[nH]c(=O)[nH]c2c1 8.91 µM [inhibitor, partial curve, poor fit]
CCCCCn1c(=N)c(S(=O)(=O)c2ccc(Br)cc2)cc2c(=O)n3cccc(C)c3nc21 7.94 µM [inhibitor, full curve, poor fit]
COC(=O)C1=C(C)N=c2s/c(=C/c3ccoc3)c(=O)n2C1c1ccccc1 (centres undefined) 44.7 µM [inhibitor, partial curve]
CC(C)(C)OC(=O)Nc1ccc([C@H](NC(=O)OC(C)(C)C)C(=O)OC(C)(C)C)cc1 5.01 µM [inhibitor, partial curve]
COc1ccc(C(OC(=O)c2ccco2)C(=O)NC2CCCC2)cc1 (centres undefined) 10 µM [inhibitor, single point]
CCOC(=O)c1c(C)oc2c1c(C(c1ccncc1)N1CCOCC1)c(O)c1ccccc12 (centres undefined) 35.5 µM [inhibitor, partial curve]
COc1ccc(/C=C/C(=O)C2CC2)cc1COc1cccc(C)c1C 39.8 µM [inhibitor, partial curve]
O=S(=O)(O)c1cccc2c(N=Nc3ccc(O)c4ncccc34)cccc12 25.1 µM [inhibitor, partial curve]
COc1cc(/C=C2\SC(=S)N(C(C(=O)O)c3ccccc3)C2=O)ccc1O (centres undefined) 8.91 µM [inhibitor, partial curve]
O=C1ON=C(c2ccccc2)/C1=C/c1ccc(-c2ccccc2[N+](=O)[O-])o1 35.5 µM [inhibitor, partial curve, poor fit]
NC1=C(Cl)C(=O)c2ccccc2C1=O 25.1 µM [inhibitor, partial curve]
CCOc1ccc(N=Cc2ccc(N(C)C)cc2)c(O)c1 31.6 µM [inhibitor, partial curve]
COC(=O)c1ccc2c(c1)N(C)CCS2 3.16 µM [inhibitor, full curve, poor fit]
COc1ccc(-c2[nH]n(-c3ccc([N+](=O)[O-])cc3)c(=O)c2C=NCc2ccncc2)cc1 7.08 µM [inhibitor, single point]
COc1ccc(C(=O)Nc2nnc(S(=O)(=O)N(C)c3ccc(C)cc3)s2)cc1 0.708 µM [inhibitor, full curve, poor fit]
Nc1c(C(=O)Nc2ccccc2)nnn1-c1ccc2c(c1)OCCO2 31.6 µM [inhibitor, partial curve]
O=C(C[C@H]1C[C@H](C(=O)N2CCOCC2)[C@@]2(CCC3CCCC3)c3[nH]c4cc(-c5ccco5)ccc4c3CCN2C1=O)NCc1cccc(C(F)(F)F)c1 0.282 µM [inhibitor, full curve, poor fit]
Cc1noc(C)c1NC(=O)N(C)C[C@@H]1Oc2ccc(NC(=O)Cc3cn(C)c4ccccc34)cc2CC(=O)N([C@H](C)CO)C[C@@H]1C 44.7 µM [inhibitor, partial curve, poor fit]
CCN(C(=O)CSc1nnc2ccccn12)C1CCS(=O)(=O)C1 (centres undefined) 4.47 µM [inhibitor, full curve, poor fit]
Cc1ccc2c(c1)Cc1c(nc(-c3ccc(F)cc3)nc1SCC(=O)N1CCCCC1)O2 7.08 µM [inhibitor, single point]
CC(C)OC(=O)C(C#N)c1nc2ccccc2nc1N1CCN(Cc2ccccc2)CC1 (centres undefined) 35.5 µM [inhibitor, partial curve, poor fit]
COc1ccc(C(=O)c2c3ccc([N+](=O)[O-])cc3[n+]([O-])n2CCCN)cc1 50.1 µM [inhibitor, partial curve, poor fit]
CNc1nc(NCCOC23CC4CC(CC(C4)C2)C3)nc(OCC(F)(F)F)n1 44.7 µM [inhibitor, partial curve]
Cc1noc(C)c1S(=O)(=O)N(CC(=O)NCCc1ccc(Cl)cc1)c1ccc(C(C)C)cc1 3.55 µM [inhibitor, full curve, poor fit]
CCOc1ccc(C2C(C#N)=C(C)NC3=C2C(=O)c2ccccc23)cc1 (centres undefined) 50.1 µM [inhibitor, partial curve, poor fit]

As a short view, some entries already given:
Potency, inconclusive:
COc1ccc(OCC2c3cc(OC)c(OC)cc3CCN2C(=O)COc2ccc(Cl)cc2Cl)cc1 (centres undefined) 17.8 µM [inhibitor, partial curve]
CCN(CC)CCCNC(=O)CSc1nc2nc(C)c(Cc3c(F)cccc3Cl)c(C)n2n1 2.51 µM [inhibitor, partial curve]

Quoted at random: two entries already listed.
Potency, inconclusive:
CC(C)OC(=O)C(C#N)c1nc2ccccc2nc1N1CCN(Cc2ccccc2)CC1 (centres undefined) 35.5 µM [inhibitor, partial curve, poor fit]
COc1ccc(Cl)cc1NC(=O)CSc1nc(=O)[nH]c2c1CCCC2 28.2 µM [inhibitor, single point]

Next part:

Activity change, negative = inhibition, inactive:
C[C@@H](NC(=O)[C@@H]1Cc2ccccc2CN1)C(=O)NC1CCCCC1 -18.6%
CC1=C(C(N)=O)C(c2cccc(C)c2)n2nc(-c3cccc(C)c3)nc2N1 (centres undefined) 4.38%
N#C/C(=N/Nc1ccc([N+](=O)[O-])cc1)C(=N)N1CCCCC1 -9.31%
COC(=O)c1c(-c2ccc(OC)c(OC)c2)csc1N -4.87%
O=S(=O)(Nn1cnnc1)c1ccccc1Cl -11.2%
Cc1c(C(=O)OCC2CCCO2)[nH]c2c1C(=O)CC(c1ccco1)C2 (centres undefined) 17.7%
O=C(c1ccc2c(c1)CCN2S(=O)(=O)c1ccc(Cl)cc1)N1CCN(c2ccccc2)CC1 -18.3%
O=C(O)CNc1ccc(S(=O)(=O)C(F)(F)F)cc1[N+](=O)[O-] -12.3%
COc1ccc(C)cc1NC(=O)NC(C)c1ccncc1 (centres undefined) -18%
O=C(C1CCCN(Cc2ccccc2F)C1)N1CCc2ccccc2C1 (centres undefined) -17.9%
COc1ccc2c(c1)-c1nc(/N=C/c3cccc(OC)c3O)sc1CC2 -6.11%
CC1(C)CC(N=c2cc(-c3ccccc3)oc3ccc(Cl)cc23)CC(C)(C)N1 -12.8%
C#CCOc1ccc(Cl)cc1/C=C1/C(=O)ON=C1C -13.4%
CCN1CCCn2c1nc1c2c(=O)n(C)c(=O)n1C -11.1%
C/C(=N/NC(=O)c1cccs1)c1ccc(NC(=O)COc2ccc(Cl)cc2Cl)cc1 -11.2%
O=C(COCc1cc(-c2cccs2)on1)NCc1ccc(F)cc1 -6.93%
Oc1ccc(N2CCN(C(c3cccs3)c3nnnn3CCc3ccccc3)CC2)cc1 (centres undefined) -8.81%

Activity change, negative = inhibition, inconclusive:
Cc1ccc(CSc2nc(-c3ccc(C(C)(C)C)cc3)nc3cc(=O)[nH]n23)cc1 -28.8% [inhibitor]
O=C(Nc1ccc(N2CCCC2)cc1)c1ccc(Br)cc1 -30.4% [inhibitor]
